Data as given in PubChem BioAssay AID1259254 (NCATS, 2017).
The deposit covers about 59,000 reagents; this is an unselected part. Over the whole deposit, about 1,550 (2.6%) are marked active. 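G2 share is only a proxy for re-replication; each gene was hit by three separate siRNAs, and active genes were retested.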 Raw values vary from plate to plate and are shown uncorrected. Unmarked entries are inactive. Not stated in the record: the amount of reagent.

Assay: 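Finding genes that stop cells copying their DNA twice in one cycle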 (primary screen)
System: human HCT116 colorectal cancer cells
Reagent: single siRNA against human genes
Timing: 3 days
Measurement: 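Imaged Hoechst DNA stain sorts each cell into a cycle phase by DNA amount; per plate, G2 fraction set to 0% for non-targeting and 100% for GMNN siRNA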
Scale: G2 robust z-score and G2 cells, % of GMNN control: higher = more G2 cells, more excess DNA replication; raw share of cells in G2: higher = larger share of cells with G2 DNA content
Active means: 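An siRNA counts as active if its G2 robust z-score lies at least 5 MADs above the screen median; here such calls match roughly 38% of GMNN control or more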

| gene | PubChem SID | G2 robust z-score | G2 cells, % of GMNN control | raw share of cells in G2 (%) |
| --- | --- | --- | --- | --- |
| MPP4 (MAGUK p55 scaffold protein 4) | SID160746937 | -1.49 | -7.53 | 3.25 |
| MPP4 (MAGUK p55 scaffold protein 4) | SID160746938 | -0.641 | -1.54 | 4.63 |
| MPP4 (MAGUK p55 scaffold protein 4) | SID160746939 | -1.38 | -6.77 | 1.51 |
| CALR (calreticulin) | SID160715244 | -0.146 | 1.94 | 4.23 |
| CALR (calreticulin) | SID160715347 | 3.08 | 24.6 | 16.4 |
| CALR (calreticulin) | SID160715455 | 0.0818 | 3.54 | 4.39 |
| PTGR3 (prostaglandin reductase 3) | SID160763230 | 3.83 | 29.9 | 16.6 |
| PTGR3 (prostaglandin reductase 3) | SID160763231 | 0.532 | 6.71 | 6.73 |
| PTGR3 (prostaglandin reductase 3) | SID160763232 | 1.22 | 11.5 | 10.9 |
| SP6 (Sp6 transcription factor) | SID160750379 | 0.466 | 6.24 | 5 |
| SP6 (Sp6 transcription factor) | SID160750380 | -0.71 | -2.03 | 4.99 |
| SP6 (Sp6 transcription factor) | SID160750381 | 0.675 | 7.72 | 6.06 |
| SENP8 (SUMO peptidase family member, NEDD8 specific) | SID160730577 | 1.98 | 16.9 | 10.9 |
| SENP8 (SUMO peptidase family member, NEDD8 specific) | SID160756067 | -1.27 | -5.97 | 2.4 |
| SENP8 (SUMO peptidase family member, NEDD8 specific) | SID160756069 | -0.357 | 0.455 | 5.88 |
| CDKAL1 (CDKAL1 threonylcarbamoyladenosine tRNA methylthiotransferase) | SID160742454 | -0.395 | 0.185 | 3.67 |
| CDKAL1 (CDKAL1 threonylcarbamoyladenosine tRNA methylthiotransferase) | SID160742455 | -0.332 | 0.633 | 4.54 |
| CDKAL1 (CDKAL1 threonylcarbamoyladenosine tRNA methylthiotransferase) | SID160742456 | -1.33 | -6.37 | 1.08 |
| LEP (leptin) | SID160776569 | -1.22 | -5.62 | 3.24 |
| LEP (leptin) | SID160776570 | 0.693 | 7.85 | 8.39 |
| LEP (leptin) | SID160776571 | -1.47 | -7.39 | 0.758 |
| EWSR1 (EWS RNA binding protein 1) | SID160762530 | -0.8 | -2.66 | 4.25 |
| EWSR1 (EWS RNA binding protein 1) | SID160762541 | 0.247 | 4.71 | 5.34 |
| EWSR1 (EWS RNA binding protein 1) | SID160762551 | 1.32 | 12.2 | 9.68 |
| CD300E (CD300e molecule) | SID160764614 | -0.142 | 1.97 | 5 |
| CD300E (CD300e molecule) | SID160764616 | 3.7 | 29 | 18.4 |
| CD300E (CD300e molecule) | SID160764617 | -1.73 | -9.18 | 1.38 |
| CNGB1 (cyclic nucleotide gated channel subunit beta 1) | SID160745198 | 0.53 | 6.7 | 7.73 |
| CNGB1 (cyclic nucleotide gated channel subunit beta 1) | SID160745209 | -0.563 | -0.994 | 4.45 |
| CNGB1 (cyclic nucleotide gated channel subunit beta 1) | SID160745220 | 1.1 | 10.7 | 8.55 |

Reformatted: entries from further up.
gene,PubChem SID,G2 robust z-score,"G2 cells, % of GMNN control",raw share of cells in G2 (%)
"SENP8 (SUMO peptidase family member, NEDD8 specific)",SID160756069,-0.357,0.455,5.88
CDKAL1 (CDKAL1 threonylcarbamoyladenosine tRNA methylthiotransferase),SID160742454,-0.395,0.185,3.67
CDKAL1 (CDKAL1 threonylcarbamoyladenosine tRNA methylthiotransferase),SID160742455,-0.332,0.633,4.54
CDKAL1 (CDKAL1 threonylcarbamoyladenosine tRNA methylthiotransferase),SID160742456,-1.33,-6.37,1.08
LEP (leptin),SID160776569,-1.22,-5.62,3.24
LEP (leptin),SID160776570,0.693,7.85,8.39

Continued.
| gene | PubChem SID | G2 robust z-score | G2 cells, % of GMNN control | raw share of cells in G2 (%) |
| --- | --- | --- | --- | --- |
| DCX (doublecortin) | SID160753044 | -0.565 | -1.01 | 4.83 |
| DCX (doublecortin) | SID160753054 | 0.627 | 7.38 | 6.79 |
| DCX (doublecortin) | SID160753064 | 0.611 | 7.27 | 6.37 |
| MSRB3 (methionine sulfoxide reductase B3) | SID160730890 | -0.363 | 0.412 | 4.87 |
| MSRB3 (methionine sulfoxide reductase B3) | SID160762110 | 0.785 | 8.49 | 7.81 |
| MSRB3 (methionine sulfoxide reductase B3) | SID160762111 | 1.39 | 12.8 | 12 |
| ST3GAL1 (ST3 beta-galactoside alpha-2,3-sialyltransferase 1) | SID160716721 | 1.85 | 16 | 9.25 |
| ST3GAL1 (ST3 beta-galactoside alpha-2,3-sialyltransferase 1) | SID160716722 | -0.762 | -2.39 | 3.73 |
| ST3GAL1 (ST3 beta-galactoside alpha-2,3-sialyltransferase 1) | SID160716723 | 0.273 | 4.89 | 7.33 |
| B4GALNT2 | SID160756256 | 2.62 | 21.4 | 15.6 |
| B4GALNT2 | SID160756257 | 7.96 (active) | 59 | 30.3 |
| B4GALNT2 | SID160756258 | -0.957 | -3.76 | 3.06 |
| HEXA (hexosaminidase subunit alpha) | SID160774913 | 4.61 | 35.4 | 17.9 |
| HEXA (hexosaminidase subunit alpha) | SID160774914 | 1.39 | 12.7 | 10.5 |
| HEXA (hexosaminidase subunit alpha) | SID160774915 | 0.0421 | 3.26 | 5.4 |
| ZDHHC11B (zDHHC palmitoyltransferase 11B (putative)) | SID160726365 | 2.6 | 21.3 | 9.09 |
| ZDHHC11B (zDHHC palmitoyltransferase 11B (putative)) | SID160770919 | 0.207 | 4.42 | 5.25 |
| ZDHHC11B (zDHHC palmitoyltransferase 11B (putative)) | SID160770920 | 5.7 (active) | 43.1 | 19.1 |
| USP48 (ubiquitin specific peptidase 48) | SID160751874 | -1.02 | -4.18 | 3.83 |
| USP48 (ubiquitin specific peptidase 48) | SID160751875 | -0.00979 | 2.9 | 5.43 |
| USP48 (ubiquitin specific peptidase 48) | SID160751876 | -1.07 | -4.55 | 2.57 |
| DPYSL3 (dihydropyrimidinase like 3) | SID160756157 | -0.949 | -3.71 | 3.64 |
| DPYSL3 (dihydropyrimidinase like 3) | SID160756168 | -0.761 | -2.39 | 3.27 |
| DPYSL3 (dihydropyrimidinase like 3) | SID160756178 | 2.34 | 19.4 | 12.1 |
| SFTPC (surfactant protein C) | SID160716634 | 5.58 (active) | 42.2 | 22.9 |
| SFTPC (surfactant protein C) | SID160716635 | 1.18 | 11.3 | 8.67 |
| SFTPC (surfactant protein C) | SID160724076 | 0.197 | 4.36 | 4.93 |
| ACSM4 (acyl-CoA synthetase medium chain family member 4) | SID160733099 | 0.179 | 4.23 | 5.89 |
| ACSM4 (acyl-CoA synthetase medium chain family member 4) | SID160764545 | 5.8 (active) | 43.8 | 19 |
| ACSM4 (acyl-CoA synthetase medium chain family member 4) | SID160764547 | 0.521 | 6.63 | 6.16 |
| ZNF217 (zinc finger protein 217) | SID160719293 | -0.913 | -3.46 | 4.14 |
| ZNF217 (zinc finger protein 217) | SID160719294 | -0.271 | 1.06 | 4.83 |
| ZNF217 (zinc finger protein 217) | SID160719295 | -1.25 | -5.85 | 2.08 |
| ARL15 (ARF like GTPase 15) | SID160741980 | 0.526 | 6.67 | 8.98 |
| ARL15 (ARF like GTPase 15) | SID160741981 | -0.557 | -0.951 | 3.89 |
| ARL15 (ARF like GTPase 15) | SID160741982 | -0.41 | 0.0819 | 3.83 |
| USP36 (ubiquitin specific peptidase 36) | SID160746385 | 0.812 | 8.68 | 8.59 |
| USP36 (ubiquitin specific peptidase 36) | SID160746386 | 0.529 | 6.69 | 7.28 |
| USP36 (ubiquitin specific peptidase 36) | SID160746387 | 0.724 | 8.06 | 6.92 |
| ZKSCAN5 (zinc finger with KRAB and SCAN domains 5) | SID160736780 | -0.0318 | 2.74 | 3.76 |
| ZKSCAN5 (zinc finger with KRAB and SCAN domains 5) | SID160736781 | -0.732 | -2.18 | 4.92 |
| ZKSCAN5 (zinc finger with KRAB and SCAN domains 5) | SID160736784 | -0.498 | -0.534 | 3.46 |
| GNB3 (G protein subunit beta 3) | SID160723785 | -1.15 | -5.1 | 1.84 |
| GNB3 (G protein subunit beta 3) | SID160723787 | 0.731 | 8.11 | 8.35 |
| GNB3 (G protein subunit beta 3) | SID160730987 | -0.901 | -3.37 | 4.01 |
| STK26 (serine/threonine kinase 26) | SID160741335 | -1.21 | -5.58 | 3.85 |
| STK26 (serine/threonine kinase 26) | SID160741336 | 0.00825 | 3.03 | 6.29 |
| STK26 (serine/threonine kinase 26) | SID160741337 | -0.337 | 0.593 | 3.87 |
| ADGRG2 (adhesion G protein-coupled receptor G2) | SID160726123 | -0.66 | -1.68 | 5.24 |
| ADGRG2 (adhesion G protein-coupled receptor G2) | SID160726127 | -0.672 | -1.76 | 3.9 |
| ADGRG2 (adhesion G protein-coupled receptor G2) | SID160726134 | 0.72 | 8.03 | 5.73 |
| ZNF749 (zinc finger protein 749) | SID160765910 | -0.379 | 0.3 | 3.19 |
| ZNF749 (zinc finger protein 749) | SID160765911 | -0.548 | -0.89 | 2.86 |
| ZNF749 (zinc finger protein 749) | SID160765913 | -0.548 | -0.889 | 3.21 |
| LTA (lymphotoxin alpha) | SID160776753 | -0.0493 | 2.62 | 6.37 |
| LTA (lymphotoxin alpha) | SID160776754 | -0.63 | -1.47 | 4.89 |
| LTA (lymphotoxin alpha) | SID160776756 | 1.84 | 15.9 | 8.44 |
